No constants are given. Whether binding was seen depends on the method and setting.
Molecular target: T1, recombinant full-length PDZK1 (mouse, UniProt Q9JIL4 1-519)
T1 construct: PDZK1, full length, with PDZ1-PDZ4; source: recombinant, purified
T1 sequence (looked up): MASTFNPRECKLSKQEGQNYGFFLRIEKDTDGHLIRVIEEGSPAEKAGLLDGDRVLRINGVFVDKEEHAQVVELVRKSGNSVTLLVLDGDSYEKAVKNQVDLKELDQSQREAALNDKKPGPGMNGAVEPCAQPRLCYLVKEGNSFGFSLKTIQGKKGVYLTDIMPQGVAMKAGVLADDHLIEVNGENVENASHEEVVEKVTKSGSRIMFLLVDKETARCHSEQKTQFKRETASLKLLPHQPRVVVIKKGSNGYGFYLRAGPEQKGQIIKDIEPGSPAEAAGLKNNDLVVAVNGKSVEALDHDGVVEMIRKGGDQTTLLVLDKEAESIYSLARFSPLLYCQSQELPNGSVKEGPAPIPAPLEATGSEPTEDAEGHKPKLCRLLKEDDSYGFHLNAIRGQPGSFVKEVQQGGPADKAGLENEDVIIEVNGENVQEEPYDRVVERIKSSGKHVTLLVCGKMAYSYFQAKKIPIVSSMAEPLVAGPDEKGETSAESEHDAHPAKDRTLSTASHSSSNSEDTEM
Assay: condition: 1.0 mM peptide titrated against 0.03 mM protein; ITC; 1.0 mM peptide injected in 10 µl aliquots into 0.03 mM PDZ1 or full length PDZK1 in the cell; 150 mM NaCl, 25 mM Tris pH 8.0, 0.5 mM TCEP, 20°C; VP-ITC; both purified

binding: no binding
B1: Peptide 2 (K407SEAIAAC414), carboxy-terminus of IP devoid of the three terminal amino acids SLC (peptide)
peptide: KSEAIAAC

— paper PMC3566133, “Molecular Analysis of the Prostacyclin Receptor’s Interaction with the PDZ1 Domain of Its Adaptor Protein PDZK1” (PLoS ONE, 2013)
